Calls of active or inactive are those of the source. No cut-off for these calls is given here.
Tested on: MR49F
Conditions: Homo sapiens

Structure (SMILES): CNC(=O)c1ccc(N2C(=S)N(c3ccc(C#N)c(C(F)(F)F)c3)C(=O)C2(C)C)cc1F
- TGI: inactive

Source: ChEMBL document CHEMBL4411271, “New Generation of Selective Androgen Receptor Degraders: Our Initial Design, Synthesis, and Biological Evaluation of New Compounds with Enzalutamide-Resistant Prostate Cancer Activity” (J Med Chem, 2019)
